# Measured values from EP4400508A1, “ACTIVE PEPTIDE AND USE THEREOF” (Harvest Biotech Co., Ltd, priority 2021, dated 2024).
# “Also recorded” adds a separate entry of the source. Part of at least one peptide drawing is inferred or uncertain, most often the ends. Residues, ends and D or L forms follow the SMILES beside them. No end group written: not given here.
# Tests used:
# [1] = UVA damage repair experiment with truncated and modified bioactive peptides (Example 6); assay type: cell-based; conditions: FIG. 8
# [2] = tested on: Human foreskin fibroblast HFF cells and immortalized human immortalized keratinocytes HaCaT cells; assay: Ability to protect cells from UVA damage (cell viability, collagen type I, ATP); assay type: cell-based; conditions: for overall effects: summary of the results of Examples 1-5; for cell survival under ultraviolet-stimulated conditions: UVA 5-15 J/cm^2, 24 h culture, FIG. 3; for content of collagen type I outside testing cells: FIG. 4
# [3] = tested on: Human foreskin fibroblast HFF cells; assay: Ability to repair UVA damage (cell viability); assay type: cell-based; conditions: for anti-aging efficacy (repair of UVA damage): FIG. 9; for repair of UVA-caused damage, cell viability: HFF cells, UVA 5 J/cm^2, 24 h, FIG. 6
# MMP-9 = assay: Quantitative detection of MMP-9 expression after UVA damage; assay type: cell-based, Human; conditions: HFF cells, UVA 5J/cm^2, 24h, culture medium; FIG. 7
# HaCaT cells = assay: Cell viability detection experiment (CCK8 kit); assay type: cell-based, human; conditions: 24 h incubation, FIG. 2
# [4] = ultraviolet-stimulated conditions, UVA 5-15 J/cm^2, 24 h
molecule,measurement,setting,value
"ESETEAVLQ [EQ-9-2, ESETEAVLQ]",activity (UVA damage repair),[1],activity of the polypeptide is completely lost
"LSDQVPDTESET [LT-12, LSDQVPDTESET]",overall effects,[2],poor overall effects
same,activity (UVA damage repair),[1],almost completely loses activity
CCCCCCCCCCCCCCCC(=O)N[C@@H](CCC(=O)O)C(=O)N[C@@H](CO)C(=O)N[C@@H](CCC(=O)O)C(=O)N[C@H](C(=O)N[C@@H](CCCNC(=N)N)C(=O)N[C@H](C(=O)N[C@@H](CC(C)C)C(=O)N[C@@H](CC(C)C)C(=O)N[C@@H](CCC(N)=O)C(=O)O)[C@@H](C)CC)[C@@H](C)O [palmitoylated EQ9] (HELM PEPTIDE1{[CCCCCCCCCCCCCCCC(=O)[*:2]].E.S.E.T.R.I.L.L.Q}$$$$V2.0),anti-aging efficacy (repair of UVA damage),[3]; 4 ppm,certain effect
same,anti-aging efficacy (repair of UVA damage),[3]; 10 ppm,significantly improve the anti-aging efficacy
"SETRIL [SL-6, SETRIL]",activity (UVA damage repair),[1],loss of activity
"LSDQVPDTESETRILLQ [LQ-17, LSDQVPDTESETRILLQ]",cell survival under ultraviolet-stimulated conditions,[2],significantly improve cell survival
same,content of collagen type I outside testing cells,[2]; [4],significantly increase a content of collagen type I
same,"repair of UVA-caused damage, cell viability",[3],repair UVA-caused damage and increase cell viability
same,MMP-9 expression amount of cells after ultraviolet damage,MMP-9,significantly reduce
"VPDTESETRILLQ [VQ-13, VPDTESETRILLQ]",overall effects,[2],poor overall effects
CCCCCCCCCCCCCCCC(=O)N[C@@H](CCC(=O)O)C(=O)N[C@@H](CO)C(=O)N[C@@H](CCC(=O)O)C(=O)N[C@H](C(=O)N[C@@H](CCCNC(=N)N)C(=O)N[C@H](C(=O)N[C@@H](CC(C)C)C(=O)N[C@@H](CC(C)C)C(=O)N[C@@H](CCC(N)=O)C(=O)N[C@@H](CCCCN)C(=O)O)[C@@H](C)CC)[C@@H](C)O [EK10-pal] (HELM PEPTIDE1{[CCCCCCCCCCCCCCCC(=O)[*:2]].E.S.E.T.R.I.L.L.Q.K}$$$$V2.0),anti-aging efficacy (repair of UVA damage),[3]; 10 ppm,no anti-aging efficacy
"ESETRILLQ [EQ-9, ESETRILLQ]",ability to promote cell survival,HaCaT cells,obviously stronger than that of LQ-17
same,cell survival under ultraviolet-stimulated conditions,[2],significantly improve cell survival
same,content of collagen type I outside testing cells,[2]; [4],significantly increase a content of collagen type I
same,intracellular ATP content,"[2]; ultraviolet-stimulated conditions, UVA 5-15 J/cm^2, 24 h, FIG. 5",significantly increase intracellular ATP content; also recorded: significantly superior to LQ-17
same,"repair of UVA-caused damage, cell viability",[3],repair UVA-caused damage and increase cell viability
same,MMP-9 expression amount of cells after ultraviolet damage,MMP-9,significantly reduce
"ETRILL [EL-6, ETRILL]",activity (UVA damage repair),[1],retains better bioactivity
